According to article PMC10584130:
No constants are given. Whether binding was seen depends on the method and setting. In cells and extracts the contact can be indirect. Some results given as binding are weak or reduced against the parent protein; the word gives no strength. Where a sequence is shown, tags or fusion partners need not be part of it.

The chains behind the UniProt entries cited, without tags or fusion partners.
UniProt P10591: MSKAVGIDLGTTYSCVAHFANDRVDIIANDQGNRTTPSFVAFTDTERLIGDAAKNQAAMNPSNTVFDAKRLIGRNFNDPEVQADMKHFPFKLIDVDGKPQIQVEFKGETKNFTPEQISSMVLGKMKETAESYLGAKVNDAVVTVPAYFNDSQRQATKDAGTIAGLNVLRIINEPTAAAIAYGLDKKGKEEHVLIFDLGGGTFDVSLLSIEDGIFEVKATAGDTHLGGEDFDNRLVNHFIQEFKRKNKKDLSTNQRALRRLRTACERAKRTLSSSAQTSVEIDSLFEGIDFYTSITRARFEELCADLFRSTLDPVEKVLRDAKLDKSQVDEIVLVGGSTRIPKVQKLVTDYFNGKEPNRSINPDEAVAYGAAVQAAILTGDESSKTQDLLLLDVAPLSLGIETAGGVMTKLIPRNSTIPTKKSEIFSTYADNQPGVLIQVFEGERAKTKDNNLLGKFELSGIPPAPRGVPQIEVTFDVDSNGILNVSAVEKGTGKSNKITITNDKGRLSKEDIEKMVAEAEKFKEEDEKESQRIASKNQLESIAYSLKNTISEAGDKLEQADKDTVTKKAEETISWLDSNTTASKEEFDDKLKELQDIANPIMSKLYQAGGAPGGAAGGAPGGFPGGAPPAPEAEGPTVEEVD

T1: HA3-Ste5 (S. cerevisiae) (UniProt P32917)
T1 sequence: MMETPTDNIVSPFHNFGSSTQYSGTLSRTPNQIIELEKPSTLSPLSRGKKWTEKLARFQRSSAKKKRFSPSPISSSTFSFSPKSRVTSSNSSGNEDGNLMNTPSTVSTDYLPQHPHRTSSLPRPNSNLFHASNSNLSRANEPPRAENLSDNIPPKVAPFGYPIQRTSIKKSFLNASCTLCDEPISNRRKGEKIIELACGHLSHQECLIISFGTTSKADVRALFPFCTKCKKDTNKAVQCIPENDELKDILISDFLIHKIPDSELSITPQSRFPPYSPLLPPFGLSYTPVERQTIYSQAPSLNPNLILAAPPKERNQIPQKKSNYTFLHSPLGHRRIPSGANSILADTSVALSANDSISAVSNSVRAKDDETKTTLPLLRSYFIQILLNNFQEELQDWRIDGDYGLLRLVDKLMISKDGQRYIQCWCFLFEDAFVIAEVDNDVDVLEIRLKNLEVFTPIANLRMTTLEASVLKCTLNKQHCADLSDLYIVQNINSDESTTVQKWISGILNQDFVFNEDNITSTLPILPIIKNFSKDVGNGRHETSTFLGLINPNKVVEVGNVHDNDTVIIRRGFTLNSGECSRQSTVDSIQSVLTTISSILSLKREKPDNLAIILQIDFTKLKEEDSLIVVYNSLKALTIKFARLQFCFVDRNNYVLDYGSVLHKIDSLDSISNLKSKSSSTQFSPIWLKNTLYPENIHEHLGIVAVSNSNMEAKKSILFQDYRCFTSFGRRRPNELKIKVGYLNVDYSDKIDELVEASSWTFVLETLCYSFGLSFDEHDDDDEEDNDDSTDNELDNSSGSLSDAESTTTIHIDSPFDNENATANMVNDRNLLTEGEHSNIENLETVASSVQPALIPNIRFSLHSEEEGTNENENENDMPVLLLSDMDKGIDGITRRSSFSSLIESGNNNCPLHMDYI

B1: Ste5-Myc9 (protein, UniProt P32917 1-917)
chain: T1 sequence
B2: HA3-Ste5 (protein, UniProt P32917 1-917)
chain: T1 sequence
B3: GFP-Cdc24 (protein, UniProt P11433 1-854)
chain: MAIQTRFASGTSLSDLKPKPSATSISIPMQNVMNKPVTEQDSLFHICANIRKRLEVLPQLKPFLQLAYQSSEVLSERQSLLLSQKQHQELLKSNGANRDSSDLAPTLRSSSISTATSLMSMEGISYTNSNPSATPNMEDTLLTFSMGILPITMDCDPVTQLSQLFQQGAPLCILFNSVKPQFKLPVIASDDLKVCKKSIYDFILGCKKHFAFNDEELFTISDVFANSTSQLVKVLEVVETLMNSSPTIFPSKSKTQQIMNAENQHRHQPQQSSKKHNEYVKIIKEFVATERKYVHDLEILDKYRQQLLDSNLITSEELYMLFPNLGDAIDFQRRFLISLEINALVEPSKQRIGALFMHSKHFFKLYEPWSIGQNAAIEFLSSTLHKMRVDESQRFIINNKLELQSFLYKPVQRLCRYPLLVKELLAESSDDNNTKELEAALDISKNIARSINENQRRTENHQVVKKLYGRVVNWKGYRISKFGELLYFDKVFISTTNSSSEPEREFEVYLFEKIIILFSEVVTKKSASSLILKKKSSTSASISASNITDNNGSPHHSYHKRHSNSSSSNNIHLSSSSAAAIIHSSTNSSDNNSNNSSSSSLFKLSANEPKLDLRGRIMIMNLNQIIPQNNRSLNITWESIKEQGNFLLKFKNEETRDNWSSCLQQLIHDLKNEQFKARHHSSTSTTSSTAKSSSMMSPTTTMNTPNHHNSRQTHDSMASFSSSHMKRVSDVLPKRRTTSSSFESEIKSISENFKNSIPESSILFRISYNNNSNNTSSSEIFTLLVEKVWNFDDLIMAINSKISNTHNNNISPITKIKYQDEDGDFVVLGSDEDWNVAKEMLAENNEKFLNIRLY

Experiments:
HA3-Ste5 (S. cerevisiae) = target: T1, HA3-Ste5 (S. cerevisiae); experiment: co-IP; whole cell extracts of wild type and ssa1D ssa2D strains co-expressing Ste5-Myc9 and HA3-Ste5 from 2 micron plasmids; IP with 12CA5 or 9E10, immunoblot; modified H buffer with 150 mM NaCl
Ssa1-GFP (S. cerevisiae) = Ssa1-GFP (S. cerevisiae) (UniProt P10591); experiment: co-IP; whole cell extracts of EY1775 co-expressing the tagged proteins; IP with 9E10 (Myc) or anti-GFP polyclonal antibodies, immunoblot; modified H buffer with 200 mM NaCl, immunoprecipitation buffer 150 mM NaCl (results say 200 mM NaCl)
[1] = target: Ste5-Myc9 (S. cerevisiae) (UniProt P32917); experiment: as above

binding (HA3-Ste5 (S. cerevisiae)) | binding (Ssa1-GFP (S. cerevisiae)) | binding [1] | Binder
binds | binds |  | B1
 | binds |  | B2
 |  | binds | B3
